Measurements taken from US7419984B2, “Pyrimidines and uses thereof” (Cell Therapeutics, Inc., priority 2002, dated 2008).
pIC50: −log10 of the molar value.

Biological target: T1, human LPAAT-β (Homo sapiens, UniProt O15120)
T1 construct: the full-length human LPAAT-β cDNA was amplified by PCR; poly-histidine tag (N); made in house; host or cells: Sf9 insect cells (baculovirus, pFastBac HTc); the membrane fraction was used as the enzyme
T1 sequence (O15120 24-278): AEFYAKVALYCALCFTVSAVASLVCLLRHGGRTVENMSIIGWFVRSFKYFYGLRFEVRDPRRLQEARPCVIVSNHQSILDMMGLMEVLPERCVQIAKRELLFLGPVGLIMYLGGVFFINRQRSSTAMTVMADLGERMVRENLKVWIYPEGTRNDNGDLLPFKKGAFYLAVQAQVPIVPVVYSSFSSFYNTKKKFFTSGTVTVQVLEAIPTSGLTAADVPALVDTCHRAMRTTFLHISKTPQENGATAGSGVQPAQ
Experiment: LPAAT-β cell-free assay
Assay type: biochemical
Details: Sf9 cell membrane overexpressing recombinant LPAAT-β
Description: For the construction of Baculovirus expression vectors, the full-length human LPAAT-β cDNA was amplified by PCR from the DNA template pCE9.LPAAT-β (West et al., DNA Cell Bid. 16.691-701 (1997)) using the primers 5′-[…] […] […]-3′ (olpb1F; SEQ ID NO:1) and 5′-[…] […] […]-3′ (olpb1R; SEQ ID NO:2). The ˜870 bp fragment generated was reamplified by PCR using the primers 5′ […] […] ATC-3′ (olpb2F; SEQ ID NO:3) and 5′-[…] […] […]-3′ (olpb1R; SEQ ID NO:2). The ˜890 bp fragment generated was then cleaved with Sal I and Xba I for insertion into pFastBac™ HTc vector (Life Technologies, Gaithersberg, M.d.) between the Sal I and Xba I sites for the generation of the plasmid pFB.LPAAT-β. […]
LPAAT-β catalyzes the transfer of an acyl group from a donor such as acyl-CoA to LPA. […] The absorbance at 405 nm, measured using a spectrophotometer plate reader, is proportional to the activity of LPAAT-2 in the sample. […]

pIC50: 6.51
SMILES: Nc1nc(Nc2ccc(C(F)(F)F)cc2)cc(-c2cccc(Cl)c2)n1 [Example 107, 6-(3-Chloro-phenyl)-N*4*-(4-trifuoromethyl-phenyl)-pyrimidine-2,4-diamine]
